According to patent US20170128428A1 (priority 2014, published 2017):
Where two headings read alike, the source gives them in different places.

Experiments:
[1] = tested on: oxaliplatin-induced neuropathy
[2] = tested on: oxaliplatin-induced neuropathy; details: group O-D
[3] = tested on: oxaliplatin-induced neuropathy; details: 5 mg/kg 30 minutes before the test, FIG. 5
[4] = single 5 mg/kg oral dose on day 31, group O-D
[5] = single 5 mg/kg oral dose on day 31

COc1cc2c(cc1OC)C(=O)C(CC1CCN(Cc3ccccc3)CC1)C2 (racemic) [donepezil]
pain threshold, mechanical stimulation, vs group O ([1]; preventive: 5 mg/kg orally twice per day, day 14 to day 28, with chronic oxaliplatin, group O-D, FIG. 3): significantly higher pain threshold than animals treated using oxaliplatin alone | time after administration from which paw withdrawal threshold is improved [1, 4]: 30 min | time after administration up to which improvement of paw withdrawal threshold lasts [1, 4]: up to 60 min. | paw withdrawal threshold (static mechanical allodynia) ([1]; single 5 mg/kg oral dose on day 31 after chronic oxaliplatin, group O-D vs group O, FIG. 1): significant improvement in the paw withdrawal threshold | pain threshold, cold stimulation, vs group O ([2]; preventive: 5 mg/kg orally twice per day, day 14 to day 28, with chronic oxaliplatin, FIG. 4): significantly higher pain threshold than animals treated using oxaliplatin alone | time after administration from which cold allodynia is decreased [2, 5]: 30 min | time after administration up to which cold allodynia is decreased [2, 5]: up to 120 minutes | tolerance for cold / cold allodynia (tail withdrawal) ([2]; single 5 mg/kg oral dose on day 31 after chronic oxaliplatin, FIG. 2): increase their tolerance for cold | anxiety level (social interaction time) ([3]; day 31, oxaliplatin-treated rats (group O-D)): anxiety level equivalent to that of the Sham group and significantly lower than that of group O | anxiety level (social interaction time) ([3]; day 31, rats not treated with oxaliplatin (group D)): anxiety level similar to those of the Sham group, the difference not being significant
